Results published in US20100040566A1, “EMULSION” (Riemann Trading ApS, priority 2006, published 2010).
At least one compound was matched to its structure with a doubt left.

Assay: Determination of photo stability (Xenon arc lamp irradiation, HPLC of UV-filters)
Type: physicochemical
Text: The test sample are weighed and distributed evenly and homogeneously with a brush onto the marked area of a glass plate.
For the Irradiation we use a Xenon arc lamp because the continuous spectrum in the UV-region is near—identical to that of—natural light. The lamp is turned on approximately one hour before Irradiation.
The glass plate Is positioned under the lamp so that the square with the test sample is maximally illuminated.
The distance (lamp-glass plate) is acquired with the aid of a calibrated hand radiometer (PMA 2100) with UV-B detector. The radiant Intensity of the lamp on the sample is set up so that an Irradiation dose of 3 MED (Minimal Erythemal Dose) is given after two hours.
In order to ascertain to which extent each of the Individual UV-filters in the tested formulations has been photometrically degraded, they are analytically quantified before and after irradiation.
The instrumental-analytical method used is HPLC
Sample is prepared as described in Example 1

With `CCCCC(CC)COC(=O)C=Cc1ccc(OC)cc1` (stereo not drawn) [Ethylhexyl Methoxycinnamate] as the compound, how does the “Content of UV-Filter Substances, After irradiation [3MED/2 h], Found [%]” value (Xenon arc lamp, 3 MED after two hours, HPLC) read?
The value was 4.65%.

And the “Content of UV-Filter Substances, Before irradiation, Found [%]” value (in sample prepared as in Example 1, HPLC)?
The value was 7.61%.

And the “Content of UV-Filter Substances, After irradiation [3MED/2 h], [%] rel.” value (relative to content before irradiation)?
The value was 61.1%.
